Results are given as percent effect.
How 0% and 100% were set is not recorded. Most values in the screen are low, and negative values occur.
This is an unselected part of the compounds tested.

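Phenotypic screen: M. tuberculosis growth, cholesterol and DPPC medium, 4 days; the read-out is not stated. Concentration: 500 µM. Higher reads as more growth inhibition (inferred: compounds with an IC50 in retests scored well above the rest). Of about 18,000 compounds tested this way, about 900 (5%) reached 50% or more in at least one test.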

Compound | percent effect
CCOCC1CCN(C(=O)NCCC2=CCOCC2)C1 (stereo not drawn) | 8.864%
CCN(CC)C(=O)CCNC(=O)NC1(C)CCC1 | -5.125%
Cc1ccccc1OCC(O)CN1CCC[C@@H]1CO (stereo partly drawn) | 36.44%
CC(CCNC(=O)CCc1cccnc1)n1ccnc1 (stereo not drawn) | 6.73%
O=C(NCCCNCc1ccccc1)c1ccccn1 | 14.89%
CC(C)=CCNC(=O)Nc1ncnn1C | -5.852%
NC1=NN=C(c2ccc(Br)cc2)CS1 | 2.437%
CC(=O)Nc1ccccc1C=CBr | -4.012%
OC1(C2CCCCC2)CCNCC1 | -16.98%
CC1(C2CCCN(C(=O)c3ccncc3)C2)OCCO1 (stereo not drawn) | -12.38%
Cc1ccc(CC(=O)NC2(C)CCS(=O)(=O)C2)cc1 (stereo not drawn) | 5.637%
N#Cc1ccccc1CSc1nnnn1C1CC1 | 34.69%
Cc1c(C(N)=O)nnn1-c1ccc2c(c1)OCCO2 | -12.05%
O=C(c1cccc(N2CCNC2=O)c1)N1CCOCC1 | -12.09%
NC1(c2nc(-c3ccccc3)c[nH]2)CCCC1 | 67.14%
CN(CCN(C)C(=O)C1CC=CC1)C(=O)C1CC=CC1 | 4.307%
Cc1cc(N)n(CC(=O)N[C@@H]2COCC[C@H]2O)n1 | 13.31%
CN1CCN(Cc2cccc3c2OCO3)CC1 | 7.843%
O=C(NC1CC1)N1CCSCC1CCO (stereo not drawn) | -18.43%
CCS(=O)(=O)NC1(CN)CCCC1 | -6.641%
CN(C)C(=O)NC1CCCNC1 (stereo not drawn) | -13.92%
CCO[C@@H]1COCC[C@H]1NC(=O)c1cncn1C | 2.224%
O=C(Nc1ccc(-n2cncn2)cc1)C1CCCN1 (stereo not drawn) | 12.68%
CC(=O)c1ccc(Cl)c(S(=O)(=O)NC(CN)C2CC2)c1 (stereo not drawn) | 16.03%
Cc1cnn(CCNC(C)CC(N)=O)c1 (stereo not drawn) | -4.675%
Cc1ccsc1CN1CC(O)(CC#N)C1 | -5.062%
NCCOCc1ccc(Cl)cc1 | 29.65%
NC(=O)c1cccc(NC2CCCCNC2=O)c1 (stereo not drawn) | -2.178%
CC(C)(O)Cn1nnc(-c2cccs2)n1 | 64.6%
CC(=O)c1ccc2[nH]c(=O)oc2c1 | -12.79%
CCOC(=O)NC1CCC(NC(=O)C2CCC2)CC1 (stereo not drawn) | -6.767%
O=C(c1cc2ccccc2[nH]1)N1CCCC1 | -4.352%
CNC1CCN(S(C)(=O)=O)C1 (stereo not drawn) | 0.1577%
Cc1cccc(NC(=O)c2cccnc2O)n1 | -2.135%
Cc1cc(C(=O)N2CCCN(S(C)(=O)=O)CC2)c(C)s1 | -17.64%
CN1CCC(N2CCN(C)c3ccccc3C2)C1=O (stereo not drawn) | 17.12%
CN(C)C(=O)CCn1nc2ccccn2c1=O | 5.661%
Cc1ccc(C2NCCNC2=O)cc1 (stereo not drawn) | -19.29%
COc1ccnc(N2CC(O)(C3CC3)C2)n1 | 15.03%
CC1(C)CNC(CO)C1 (stereo not drawn) | -9.141%
CCC(=O)NC(C)(C)C | -3.682%
O=C1CN(c2ncnc3c2cnn3CCO)CCN1 | -8.162%
Cc1cc(CN(C)C(=O)CN2CCC(N(C)C)C2)on1 (stereo not drawn) | 11.1%
COCCN(C)CCNC(=O)c1cccc(I)c1 | 29.04%
CSC(C)C(=O)NCc1ccccc1Cn1cncn1 (stereo not drawn) | -8.712%
CC(=O)N(C)C1CCN(CC(=O)N2CCCC2)CC1 | -8.294%
CN(Cc1nccs1)C(=O)C1COc2ccccc2C1 (stereo not drawn) | 37.76%
Cc1nocc1C(C)O (stereo not drawn) | -10.28%
Cc1cc(N(C)C)nc(N2CCCC2C(=O)N(C)C)n1 (stereo not drawn) | -0.4493%
COC(=O)[C@@H]1C[C@H](O)CN1S(=O)(=O)CC1CCCCC1 | -6.641%
Cc1cc(NC(CO)CO)nc2ccccc12 | 8.314%
Cc1csc(N2CCCNCC2)n1 | 23.72%
CCC1COCCN1C(=O)CN1Cc2ccccc2C1 (stereo not drawn) | -4.199%
CCOc1ccc(S(=O)(=O)NC2CC2)cc1C(N)=O | -13.78%
CC(=O)N1CCc2[nH]c3ccccc3c2C1 | 6.498%
CN(CC(N)=O)C1Cc2ccccc2C1 | 0.871%
CN(C)Cc1cccc(C(=O)N[C@@H]2CCOC[C@H]2O)c1 | 4.206%
CCOCC(O)CN(C)Cc1cccc(C(N)=O)c1 (stereo not drawn) | 14.84%
NC1CCN(C(=O)c2cccnc2)C1 (stereo not drawn) | 6.432%

For reference, 7 entries once more:

* Cc1cccc(NC(=O)c2cccnc2O)n1 | -2.135%
* COC(=O)[C@@H]1C[C@H](O)CN1S(=O)(=O)CC1CCCCC1 | -6.641%
* O=C(NCCCNCc1ccccc1)c1ccccn1 | 14.89%
* Cc1ccc(CC(=O)NC2(C)CCS(=O)(=O)C2)cc1 (stereo not drawn) | 5.637%
* CN(Cc1nccs1)C(=O)C1COc2ccccc2C1 (stereo not drawn) | 37.76%
* Cc1nocc1C(C)O (stereo not drawn) | -10.28%
* CNC1CCN(S(C)(=O)=O)C1 (stereo not drawn) | 0.1577%

From ChEMBL document CHEMBL3988442, “University of Dundee, Small-Polar-MMV Screening Library” (2021).